Assay results published in the supplement of paper PMC4840960.
± gives the standard deviation of the averaged measurements. This is one part of the list. Part of the spread comes from offsets between plates or batches.

What follows are molecules tested on E18 rat cortical neuron-glia co-culture (assay: total nuclei (DAPI) / Olig2+ nuclei (ratio); higher = more depletion of OPC/OL lineage cells). Conditions: 5 µM; treatment time: 8 days (DIV5-DIV13).
With CC1=C(/C=C/C(C)=C/C=C/C(C)=C/C(=O)O)C(C)(C)CCC1 [Retinoic Acid] the total nuclei was 4.1.
CC1CNc2c(cccc2S(=O)(=O)N[C@@H](CCCNC(=N)N)C(=O)N2CC[C@@H](C)C[C@@H]2C(=O)O)C1 (stereo partly drawn) [Argatroban] was tested, and the total nuclei was 4.1.
With CNCCCN1c2ccccc2CCc2ccccc21 [Desipramine] the total nuclei was 3.
With C[C@]12CCC(=O)C=C1CC[C@@H]1[C@@H]2C(=O)C[C@@]2(C)[C@H]1CC[C@]2(O)C(=O)CO [Cortisone] the total nuclei was 2.8.
CCc1c(C)[nH]c2c1C(=O)C(CN1CCOCC1)CC2 (stereo not drawn) [Molindone] gave a total nuclei of 2.5.
For OCCN(CCO)c1nc(N2CCCCC2)c2nc(N(CCO)CCO)nc(N3CCCCC3)c2n1 [Dipyridamole], the total nuclei was 4.9.
CC(C)c1nc(CN(C)C(=O)N[C@H](C(=O)N[C@@H](Cc2ccccc2)C[C@H](O)[C@H](Cc2ccccc2)NC(=O)OCc2cncs2)C(C)C)cs1 [Ritonavir] was tested, and the total nuclei was 3.4.
Work on O=C(O)Cc1ccccc1Nc1c(Cl)cccc1Cl [Diclofenac] yielded a total nuclei of 4.1.
Work on CC[N+](C)(C)c1cccc(O)c1 [Edrophonium] yielded a total nuclei of 3.
Work on C[C@]12C=CC(=O)C=C1CC[C@@H]1[C@@H]2[C@@H](O)C[C@@]2(C)[C@H]1CC[C@]2(O)C(=O)COC(=O)CCC(=O)O [Prednisolone hemisuccinate] yielded a total nuclei of 3.
Work on CN(C)CCCN1c2ccccc2CCc2ccc(Cl)cc21 [Clomipramine] yielded a total nuclei of 3.3.
CC(N)C12CC3CC(CC(C3)C1)C2 (stereo not drawn) [Rimantadine] gave a total nuclei of 6.5.
With O=C(O[C@@H]1Cc2c(O)cc(O)cc2O[C@@H]1c1cc(O)c(O)c(O)c1)c1cc(O)c(O)c(O)c1 [Epigallocatechin gallate] the total nuclei was 7.7.
With Cc1nc2ccccn2c(=O)c1CCN1CCC(C(=O)c2ccc(F)cc2)CC1 [Pirenperone] the total nuclei was 2.6.
CS(N)(=O)=O [Methanesulfonamide] gave a total nuclei of 2.7.
For Cc1ccccc1C(OCCN(C)C)c1ccccc1 (stereo not drawn) [Orphenadrine], the total nuclei was 4.25 ± 0.21.
For COc1ccc(OC)c(C(O)CNC(=O)CN)c1 (stereo not drawn) [Midodrine], the total nuclei was 2.8.
O=C(O)/C=C/c1ccc(Cn2ccnc2)cc1 [Ozagrel] was tested, and the total nuclei was 2.9.
Molecule CCCCc1nc(Cl)c(CO)n1Cc1ccc(-c2ccccc2-c2nnn[nH]2)cc1 [Losartan] has a total nuclei of over 40.
Molecule COc1ccc2c(c1)c(CC(=O)O)c(C)n2C(=O)c1ccc(Cl)cc1 [Indomethacin] has a total nuclei of 3.3.
Work on Nc1nc2c(ncn2COC(CO)CO)c(=O)[nH]1 [Ganciclovir] yielded a total nuclei of 3.1.
In the case of C[C@](N)(Cc1ccc(O)c(O)c1)C(=O)O [Methyldopa], the total nuclei is reported as 2.8.
O=C(CCCN1CC=C(n2c(=O)[nH]c3ccccc32)CC1)c1ccc(F)cc1 [Droperidol] showed a total nuclei of 2.7.
Molecule CC(C)c1ccc2c(c1)c(SC(C)(C)C)c(CC(C)(C)C(=O)O)n2Cc1ccc(Cl)cc1 has a total nuclei of 39.9.
COc1cc(C)nc(-n2nc(C)cc2OC)n1 [Epirizole] gave a total nuclei of 2.9.
For CC(C(=O)O)c1cccc(C(=O)c2ccccc2)c1 (stereo not drawn) [Ketoprofen], the total nuclei was 4.
Work on C[C@H]1c2cccc(O)c2C(=O)C2=C(O)[C@]3(O)C(=O)C(C(N)=O)=C(O)[C@@H](N(C)C)[C@@H]3[C@@H](O)[C@@H]21 [Doxycycline] yielded a total nuclei of 2.6.
Molecule CC[N+](C)(CC)CCOC(=O)C(O)(c1ccccc1)C1CCCCC1 (stereo not drawn) [Oxyphenonium] has a total nuclei of 3.1.
COc1ccc(C2CNC(=O)C2)cc1OC1CCCC1 (stereo not drawn) [Rolipram] was tested, and the total nuclei was 4.3.
In the case of C[C@@H]1C[C@H]2[C@@H]3CCC4=CC(=O)C=C[C@]4(C)[C@@]3(F)[C@@H](O)C[C@]2(C)[C@@]1(O)C(=O)CO [Dexamethasone], the total nuclei is reported as 5.7.
Work on COc1ccccc1N1CCN(CCCNc2cc(=O)n(C)c(=O)n2C)CC1 [Urapidil] yielded a total nuclei of 4.2.
CCOC(=O)C1=C(C)NC(C)=C(C(=O)OC)C1c1cccc([N+](=O)[O-])c1 (stereo not drawn) [Nitrendipine] showed a total nuclei of 3.1.
Nc1nc(F)nc2c1ncn2[C@@H]1O[C@H](CO)[C@@H](O)[C@@H]1O [Fludarabine] was tested, and the total nuclei was 3.8.
With Cn1ccnc1S [Methimazole] the total nuclei was 4.
C[C@@](Cc1ccc(O)c(O)c1)(NN)C(=O)O [Carbidopa] was tested, and the total nuclei was 3.4.
CS(=O)(=O)OCCCCOS(C)(=O)=O [Busulfan] showed a total nuclei of 7.9.
In the case of Cn1c(NCCN(CCO)CCCc2ccc([N+](=O)[O-])cc2)cc(=O)n(C)c1=O [Nifekalant], the total nuclei is reported as 3.8.
CN[C@H]1CC[C@@H](c2ccc(Cl)c(Cl)c2)c2ccccc21 [Sertraline] was tested, and the total nuclei was 20.9.
